Measurements as given in PubChem BioAssay AID504444 (National Center for Advancing Translational Sciences (NCATS), 2011).
Hit rate of the full screen: of about 360,000 compounds, about 7,500 (2.1%) were called active. The inconclusive results got no clear call from the source; some entries with a clear call stand among them for comparison. The call rests on the fitted dose curve; in most records, active means well fitted inhibition curve with a large enough effect; inconclusive means small, poorly fitted or top-dose-only effect, or effect the other way; inactive means flat fitted curve, though single readings scatter. Potencies of inconclusive entries are doubtful fits and often do not repeat. Some structures have more than one record in an assay (separate samples or runs), and their calls can disagree.

test: Nrf2 qHTS screen for inhibitors; conditions: A549 ARE-Fluc reporter, luciferase luminescence, 18-24 h; activity change, negative = inhibition: at 46 µM (top of the series); further: nearly all actives have a fitted effect of over 60% in size
Procedure, shortened: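 Quantitative HTS in A549 cells stably bearing an antioxidant response element-firefly luciferase construct. Inhibition of Nrf2-driven transcription was scored by luminescence after 18-24 h of compound exposure at 37 °C.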
On the % scale 0 is the no-effect control and ±100 the full control effect; potency means the concentration at half of the fitted maximal effect.

For `Cc1c(CCC(C)C)c(=O)n2c([nH]c3ccccc32)c1C#N`, which Potency is on record?
The Potency was inconclusive: 2.59 µM [falling, partial curve].

Which Potency does the source give for `COc1ccc(OCCC(=O)OCC(=O)NCc2ccccc2)cc1` here?
Its Potency is inconclusive: 4.61 µM [activator, full curve, poor fit].

For `Cc1cccc(S(=O)(=O)Nc2nc3ccccc3nc2NCC2CCCO2)c1` (configuration not stated), which Potency is on record?
Its Potency is inconclusive: 0.0517 µM [falling, full curve, poor fit].

With `CCOc1ccc(NS(=O)(=O)c2ccc(C(=O)NCCCN3CCOCC3)cc2)cc1` as the compound, how does the Potency read?
Its Potency is inconclusive: 5.17 µM [falling, partial curve, poor fit].

With `COC(=O)c1sccc1NC(=O)CSc1ccccc1NS(=O)(=O)c1ccc(Br)cc1` as the compound, how does the Potency read?
The Potency was inconclusive: 25.9 µM [falling, partial curve, poor fit].

Which Potency does the source give for `COc1cc(/C=C2/N=C(c3ccccc3)OC2=O)c(F)cc1OCc1ccccc1` here?
The Potency was inconclusive: 4.11 µM [activator, full curve].

For `Cc1cc2nc(-c3ccc[nH]c3=O)[nH]c2cc1C`, which Potency is on record?
Its Potency is active: 11.6 µM.

For `C[C@H](CO)N1C[C@H](C)[C@@H](CN(C)Cc2ccc(C(=O)Nc3ccccc3N)cc2)Oc2c(NC(=O)C3CCCCC3)cccc2C1=O`, which “activity change, negative = inhibition” value is on record?
Its value is inactive: -2.26%.

With `COCCCNC(=S)N1CCN(c2nc(-c3ccccc3)cs2)CC1` as the compound, how does the Potency read?
The Potency was active: 11.6 µM.

With `O=C(CCCC(=O)Nc1cccnc1)Nc1cccnc1` as the compound, how does the “activity change, negative = inhibition” value read?
The value was inactive: 10.9%.

With `O=C(O)CCC1OC(=O)C(O)=C1c1ccccc1` (configuration not stated) as the compound, how does the “activity change, negative = inhibition” value read?
The value was inactive: 12.8%.

With `Cc1ccc(S(=O)(=O)N2CCOC23CCN(S(=O)(=O)c2c(C)cc(C)cc2C)CC3)cc1` as the compound, how does the Potency read?
The Potency was inconclusive: 23.1 µM [falling, partial curve, poor fit].

For `O=C(N/N=C/c1cc([N+](=O)[O-])ccc1O)/C(=C\c1cccs1)NC(=O)c1ccccc1`, which Potency is on record?
Its Potency is inconclusive: 16.4 µM [falling, partial curve].

With `Nc1ccc2c(c1)C(=NO)c1cc([N+](=O)[O-])ccc1-2` as the compound, how does the Potency read?
The Potency was inconclusive: 29.1 µM [falling, single point].

With `COC(=O)[C@@]1(Cc2ccccc2)[C@@H]2C(=CC(=O)[C@H]2CC(=O)C(=O)N(C)C)CN1C(=O)c1ccccc1` as the compound, how does the Potency read?
The Potency was inconclusive: 5.8 µM [falling, partial curve].

With `CC(=O)Nc1ccc(S(=O)(=O)Nc2ccc(S(=O)(=O)Nc3ncccn3)cc2)cc1` as the compound, how does the “activity change, negative = inhibition” value read?
Its value is inactive: 11.8%.

For `O=C(CCCn1c(=S)[nH]c2cc3c(cc2c1=O)OCO3)N1CCN(c2ccccc2F)CC1`, which Potency is on record?
The Potency was inconclusive: 16.4 µM [falling, partial curve, poor fit].

For `CN(c1ccccc1)S(=O)(=O)c1cccc(NC(=O)CSc2ncn[nH]2)c1`, which Potency is on record?
Its Potency is inconclusive: 32.6 µM [falling, single point].

Which Potency does the source give for `CN1C[C@@H]2[C@@H]3C(=O)N(Cc4ccccc4)C(=O)[C@@H]3[C@](Cc3ccccc3)(C1=O)N2C(=O)c1ccc(Cl)c(Cl)c1` here?
Its Potency is inconclusive: 23.1 µM [falling, partial curve, poor fit].

Which “activity change, negative = inhibition” value does the source give for `Cc1c(C(=O)NCc2ccco2)oc2ccc(S(=O)(=O)N3CCC4(CC3)OCCO4)cc12` here?
The value was inactive: -7.42%.

For `COC(=O)c1[nH]c2ccc(Br)cc2c1NC(=O)CN1CCCc2ccccc21`, which Potency is on record?
The Potency was inconclusive: 18.4 µM [falling, single point].

For `O=C1c2ccccc2-c2onc3ccc(NCCCn4ccnc4)c1c23`, which Potency is on record?
The Potency was inconclusive: 18.4 µM [falling, single point].

Which “activity change, negative = inhibition” value does the source give for `CCOC(=O)C1=C(C)N=c2s/c(=C/c3ccc(OCC(=O)O)c(OC)c3)c(=O)n2C1c1ccc(Cl)cc1` (configuration not stated) here?
Its value is inactive: 0.0949%.

For `CCN(CC)CCCNC(=O)c1ccc2nc(N3CCCCC3)sc2c1`, which Potency is on record?
The Potency was inconclusive: 1.3 µM [activator, partial curve].

Which Potency does the source give for `CCOc1ccc(NC(=S)NC(=O)c2c(Br)cnn2C)c([N+](=O)[O-])c1` here?
Its Potency is inconclusive: 29.1 µM [activator, single point].

For `Cn1c(CCN2CCCCC2)nc2cc(NS(=O)(=O)c3ccccc3)ccc21`, which “activity change, negative = inhibition” value is on record?
Its value is inactive: -8.77%.

For `O=C(Nc1ccccc1C(=O)NC1CC1)c1ccc([N+](=O)[O-])o1`, which “activity change, negative = inhibition” value is on record?
The value was inactive: -9.53%.

Which “activity change, negative = inhibition” value does the source give for `O=C(N/N=C/c1ccc(N2CCOCC2)o1)c1cccc(C(F)(F)F)c1` here?
Its value is inactive: -15.2%.

Which Potency does the source give for `CCOCCn1c(CN(C)Cc2ccccc2)nc2c1c(=O)n(C)c(=O)n2C` here?
The Potency was inconclusive: 29.1 µM [falling, single point].

For `CCn1c(Cc2ccc(OC)cc2)nc2ccccc21`, which Potency is on record?
The Potency was inconclusive: 29.1 µM [falling, single point].

With `COc1ccc(C(OC(=O)c2ccco2)C(=O)NC(C)(C)C)cc1OC` (configuration not stated) as the compound, how does the Potency read?
The Potency was inconclusive: 5.8 µM [falling, partial curve, poor fit].

With `Nc1[nH]ncc1N=Nc1ccc(Cl)cc1` as the compound, how does the Potency read?
Its Potency is inconclusive: 23.1 µM [activator, single point].

Which “activity change, negative = inhibition” value does the source give for `CCOC(=O)c1nn(-c2ccc(F)cc2)c2nc(-c3ccccc3)c(C#N)c(=O)n12` here?
The value was inactive: -5.09%.

For `COc1cc(OC)c(N(C)S(=O)(=O)c2cccc(C(=O)OCC(=O)N3CCOCC3)c2)cc1Cl`, which Potency is on record?
Its Potency is inconclusive: 23.1 µM [activator, partial curve, poor fit].

Which Potency does the source give for `O=C(CN(C(=O)CCC(=O)Nc1ccccn1)c1ccc2c(c1)OCO2)NCc1ccc(F)cc1` here?
The Potency was inconclusive: 5.8 µM [activator, partial curve, poor fit].

For `O=c1[nH]nc(CNc2cccc(C(F)(F)F)c2)c2ccccc12`, which Potency is on record?
The Potency was active: 13 µM.

With `O=C(Nc1ccncc1)c1ccc(NS(=O)(=O)c2cccc(F)c2)cc1` as the compound, how does the “activity change, negative = inhibition” value read?
Its value is inactive: -31.8%.

Which Potency does the source give for `Cc1n[nH]c(C)c1S(=O)(=O)N1CCCC(C(=O)Nc2ccc(Br)cc2)C1` (configuration not stated) here?
Its Potency is active: 14.6 µM.

With `O=C(Cc1ccc(S(=O)(=O)N2CCCC2)s1)Nc1nc2c(s1)CCCC2` as the compound, how does the Potency read?
Its Potency is inconclusive: 29.1 µM [falling, single point].

With `Cc1ccc(C(=O)NC2=NCCS2)cc1Cl` as the compound, how does the Potency read?
Its Potency is inconclusive: 4.11 µM [activator, partial curve].

With `O=C(N/N=C/c1ccc2ncccc2c1)c1ccco1` as the compound, how does the Potency read?
The Potency was inconclusive: 2.06 µM [activator, partial curve].

For `Cc1[nH]c2ccccc2c1/C=N/Nc1nc(Nc2ccc(F)cc2)nc(N2CCOCC2)n1`, which activity change, negative = inhibition is on record?
Its activity change, negative = inhibition is inconclusive: 33.4% [activator].
